In publication PMC8101328:
These are yes or no findings as the source states them, for the method shown. Binding can be weak; no strength is given. Where a sequence is shown, tags or fusion partners need not be part of it.

B1: GST-tagged EpsD (340-675 aa) (domain or fragment, UniProt P45779 340-674)
chain: RRAQVLIEALIVEMAEGDGINLGVQWGSLESGSVIQYGNTGASIGNVMIGLEEAKDTTQTKAVYDTNNNFLRNETTTTKGDYTKLASALSSIQGAAVSIAMGDWTALINAVSNDSSSNILSSPSITVMDNGEASFIVGEEVPVITGSTAGSNNDNPFQTVDRKEVGIKLKVVPQINEGNSVQLNIEQEVSNVLGANGAVDVRFAKRQLNTSVMVQDGQMLVLGGLIDERALESESKVPLLGDIPLLGQLFRSTSSQVEKKNLMVFIKPTIIRDGVTADGITQRKYNYIRAEQLFRAEKGLRLLDDASVPVLPKFGDDRRHSPEIQAFIEQMEAKQ

What was measured:
[1] = target: T1, T25-EpsD(25-674) (pKT25-epsD two-hybrid fusion) (Vibrio cholerae (N16961)) (UniProt P45779); test: two-hybrid
T1 sequence: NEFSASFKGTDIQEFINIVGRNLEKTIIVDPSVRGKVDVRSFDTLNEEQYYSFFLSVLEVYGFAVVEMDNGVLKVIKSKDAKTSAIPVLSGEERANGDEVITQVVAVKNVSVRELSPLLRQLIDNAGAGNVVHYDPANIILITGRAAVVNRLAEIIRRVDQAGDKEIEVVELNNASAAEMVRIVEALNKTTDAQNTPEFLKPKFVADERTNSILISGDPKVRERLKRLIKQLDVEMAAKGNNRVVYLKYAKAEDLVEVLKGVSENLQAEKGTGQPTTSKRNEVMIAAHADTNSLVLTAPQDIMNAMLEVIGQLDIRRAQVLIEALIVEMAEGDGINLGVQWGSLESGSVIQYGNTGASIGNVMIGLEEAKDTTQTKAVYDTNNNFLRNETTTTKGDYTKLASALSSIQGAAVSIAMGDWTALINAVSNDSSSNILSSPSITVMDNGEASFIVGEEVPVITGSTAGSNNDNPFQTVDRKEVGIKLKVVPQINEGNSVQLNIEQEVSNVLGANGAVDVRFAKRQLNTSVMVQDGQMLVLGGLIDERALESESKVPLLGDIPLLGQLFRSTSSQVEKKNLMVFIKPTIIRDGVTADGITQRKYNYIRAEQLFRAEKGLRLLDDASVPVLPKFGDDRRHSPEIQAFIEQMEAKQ

[2] = target: His6-tagged gp20 (tail fiber protein of phage VP2) (Vibrio cholerae phage VP2); test: pull-down; both purified

Molecule | binding [1] | binding [2]
T18-gp20 (pUT18C-gp20 two-hybrid fusion) (Vibrio cholerae phage VP2) | binds | –
B1 | – | binds
